In paper PMC3904858 one finds binding data, which are given here for two substances.

By UniProt entry, the sequences of proteins in these tests, tags left out. Residues count along the entry.
UniProt O00206, residues 24-839: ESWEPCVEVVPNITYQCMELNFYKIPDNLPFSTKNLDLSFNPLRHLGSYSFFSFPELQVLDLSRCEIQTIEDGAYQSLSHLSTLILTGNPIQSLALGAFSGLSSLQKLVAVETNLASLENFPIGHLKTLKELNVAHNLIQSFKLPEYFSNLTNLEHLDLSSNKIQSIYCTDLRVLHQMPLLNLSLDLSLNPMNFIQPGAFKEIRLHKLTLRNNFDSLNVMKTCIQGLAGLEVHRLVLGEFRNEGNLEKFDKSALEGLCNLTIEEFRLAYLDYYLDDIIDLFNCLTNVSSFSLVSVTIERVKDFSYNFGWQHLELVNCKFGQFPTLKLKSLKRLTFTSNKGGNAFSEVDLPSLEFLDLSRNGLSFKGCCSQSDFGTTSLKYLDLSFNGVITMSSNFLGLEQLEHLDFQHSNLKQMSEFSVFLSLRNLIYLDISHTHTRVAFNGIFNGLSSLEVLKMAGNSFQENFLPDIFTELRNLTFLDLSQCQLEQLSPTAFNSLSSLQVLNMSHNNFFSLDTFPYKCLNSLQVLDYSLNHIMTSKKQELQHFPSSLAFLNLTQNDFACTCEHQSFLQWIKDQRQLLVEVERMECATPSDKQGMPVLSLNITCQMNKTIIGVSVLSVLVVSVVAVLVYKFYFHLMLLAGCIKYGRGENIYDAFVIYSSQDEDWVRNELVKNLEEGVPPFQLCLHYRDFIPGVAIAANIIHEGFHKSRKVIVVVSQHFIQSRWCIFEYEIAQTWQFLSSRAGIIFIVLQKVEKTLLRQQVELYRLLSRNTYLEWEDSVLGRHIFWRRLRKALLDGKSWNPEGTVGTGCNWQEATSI
UniProt P35579: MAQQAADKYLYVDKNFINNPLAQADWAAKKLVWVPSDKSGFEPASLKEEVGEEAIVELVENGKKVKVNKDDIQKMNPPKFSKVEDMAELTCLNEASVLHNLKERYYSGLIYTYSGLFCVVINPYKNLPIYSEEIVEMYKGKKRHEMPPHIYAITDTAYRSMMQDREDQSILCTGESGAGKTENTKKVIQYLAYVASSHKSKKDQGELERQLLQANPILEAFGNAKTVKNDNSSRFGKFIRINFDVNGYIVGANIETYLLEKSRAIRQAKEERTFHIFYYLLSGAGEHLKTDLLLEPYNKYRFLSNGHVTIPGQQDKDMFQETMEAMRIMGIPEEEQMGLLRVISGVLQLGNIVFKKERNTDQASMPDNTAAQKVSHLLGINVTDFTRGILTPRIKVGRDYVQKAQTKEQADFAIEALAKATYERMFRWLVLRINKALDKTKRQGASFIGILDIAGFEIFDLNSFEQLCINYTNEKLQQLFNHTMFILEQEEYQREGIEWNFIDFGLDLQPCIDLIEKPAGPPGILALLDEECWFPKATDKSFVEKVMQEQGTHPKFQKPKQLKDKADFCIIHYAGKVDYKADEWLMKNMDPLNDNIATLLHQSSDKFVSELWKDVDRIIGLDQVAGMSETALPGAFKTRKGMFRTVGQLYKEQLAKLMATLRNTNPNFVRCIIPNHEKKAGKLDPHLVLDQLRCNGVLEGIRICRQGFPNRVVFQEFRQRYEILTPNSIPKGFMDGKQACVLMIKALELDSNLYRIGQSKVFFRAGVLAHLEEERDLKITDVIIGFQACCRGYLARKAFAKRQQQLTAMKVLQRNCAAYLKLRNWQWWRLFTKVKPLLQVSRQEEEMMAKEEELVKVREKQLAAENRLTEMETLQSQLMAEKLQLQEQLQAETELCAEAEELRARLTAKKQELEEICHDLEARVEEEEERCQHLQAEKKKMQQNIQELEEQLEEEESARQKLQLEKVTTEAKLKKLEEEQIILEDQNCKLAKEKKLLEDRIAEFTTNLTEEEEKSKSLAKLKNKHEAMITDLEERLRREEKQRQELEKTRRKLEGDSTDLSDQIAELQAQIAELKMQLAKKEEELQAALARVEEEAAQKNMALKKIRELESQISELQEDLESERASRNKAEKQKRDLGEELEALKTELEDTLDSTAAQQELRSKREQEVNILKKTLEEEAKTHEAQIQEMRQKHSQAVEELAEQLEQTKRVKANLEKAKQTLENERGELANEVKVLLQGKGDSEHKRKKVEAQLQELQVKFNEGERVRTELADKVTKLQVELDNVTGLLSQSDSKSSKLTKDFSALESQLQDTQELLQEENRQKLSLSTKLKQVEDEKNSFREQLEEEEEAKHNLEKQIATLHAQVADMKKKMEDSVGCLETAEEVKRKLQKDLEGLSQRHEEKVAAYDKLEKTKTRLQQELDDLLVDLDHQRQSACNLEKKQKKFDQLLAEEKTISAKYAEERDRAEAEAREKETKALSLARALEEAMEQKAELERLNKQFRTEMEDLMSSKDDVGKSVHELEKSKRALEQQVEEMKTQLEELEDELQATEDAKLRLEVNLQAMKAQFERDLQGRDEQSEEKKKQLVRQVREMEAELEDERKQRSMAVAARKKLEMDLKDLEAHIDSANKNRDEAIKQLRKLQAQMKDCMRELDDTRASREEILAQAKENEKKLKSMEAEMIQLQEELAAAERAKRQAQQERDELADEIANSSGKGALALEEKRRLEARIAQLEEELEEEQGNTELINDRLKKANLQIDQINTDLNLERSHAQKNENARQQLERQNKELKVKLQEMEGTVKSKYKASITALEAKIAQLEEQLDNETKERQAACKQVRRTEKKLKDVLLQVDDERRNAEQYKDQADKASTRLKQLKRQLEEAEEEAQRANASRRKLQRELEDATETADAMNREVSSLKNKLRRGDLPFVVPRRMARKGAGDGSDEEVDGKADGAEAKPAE

No constants are given. Whether binding was seen depends on the method and setting. In cells and extracts the contact can be indirect. Some results given as binding are weak or reduced against the parent protein; the word gives no strength.

What all share (experiment): co-IP; total protein extract of washed human platelets (about 5 mg), precleared with protein A; antibody (anti-myosin-9, anti-TLR4 or anti-Rab7b) at 4°C for 16 hrs, protein A sepharose; Western blot; platelets untreated or treated with thrombin or CaCl2, with or without calpeptin pretreatment
A general note: Immunoblotting shows a protein as a band on a membrane.

Experiment [1] addresses T1, Rab7b (human (endogenous in platelets)) (UniProt Q96AH8).
T1 sequence: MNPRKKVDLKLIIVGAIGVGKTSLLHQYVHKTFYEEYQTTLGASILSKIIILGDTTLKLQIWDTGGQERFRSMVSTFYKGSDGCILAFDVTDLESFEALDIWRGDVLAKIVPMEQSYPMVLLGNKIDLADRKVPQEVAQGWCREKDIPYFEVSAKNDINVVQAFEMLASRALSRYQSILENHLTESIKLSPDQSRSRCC

Experiment [2] addresses Toll-like receptor 4 (human (endogenous in platelets)) (UniProt O00206).
Experiment [3] concerns the target myosin heavy chain-9 (myosin-9) (human (endogenous in platelets)) (UniProt P35579).

With “myosin heavy chain-9 (myosin-9) (from UniProt P35579 1-1960)”, the binding result in experiment [1] and in experiment [2] was “binds” throughout.
“Toll-like receptor 4 (from UniProt O00206 24-839)”: in experiment [3], the binding entry is listed as “binds”.
